Measurements published in PMC7368064.
Results are given in words; binding and its absence hold for the method and conditions named. In cells and extracts the contact can be indirect. Some binding calls cover weakened binding; strength is not graded here. Values belong to the molecule of their own block, whether it stands above or below them.

Sequences of proteins named here, by UniProt entry; tags and fusion partners are left off.
UniProt E9PZQ0: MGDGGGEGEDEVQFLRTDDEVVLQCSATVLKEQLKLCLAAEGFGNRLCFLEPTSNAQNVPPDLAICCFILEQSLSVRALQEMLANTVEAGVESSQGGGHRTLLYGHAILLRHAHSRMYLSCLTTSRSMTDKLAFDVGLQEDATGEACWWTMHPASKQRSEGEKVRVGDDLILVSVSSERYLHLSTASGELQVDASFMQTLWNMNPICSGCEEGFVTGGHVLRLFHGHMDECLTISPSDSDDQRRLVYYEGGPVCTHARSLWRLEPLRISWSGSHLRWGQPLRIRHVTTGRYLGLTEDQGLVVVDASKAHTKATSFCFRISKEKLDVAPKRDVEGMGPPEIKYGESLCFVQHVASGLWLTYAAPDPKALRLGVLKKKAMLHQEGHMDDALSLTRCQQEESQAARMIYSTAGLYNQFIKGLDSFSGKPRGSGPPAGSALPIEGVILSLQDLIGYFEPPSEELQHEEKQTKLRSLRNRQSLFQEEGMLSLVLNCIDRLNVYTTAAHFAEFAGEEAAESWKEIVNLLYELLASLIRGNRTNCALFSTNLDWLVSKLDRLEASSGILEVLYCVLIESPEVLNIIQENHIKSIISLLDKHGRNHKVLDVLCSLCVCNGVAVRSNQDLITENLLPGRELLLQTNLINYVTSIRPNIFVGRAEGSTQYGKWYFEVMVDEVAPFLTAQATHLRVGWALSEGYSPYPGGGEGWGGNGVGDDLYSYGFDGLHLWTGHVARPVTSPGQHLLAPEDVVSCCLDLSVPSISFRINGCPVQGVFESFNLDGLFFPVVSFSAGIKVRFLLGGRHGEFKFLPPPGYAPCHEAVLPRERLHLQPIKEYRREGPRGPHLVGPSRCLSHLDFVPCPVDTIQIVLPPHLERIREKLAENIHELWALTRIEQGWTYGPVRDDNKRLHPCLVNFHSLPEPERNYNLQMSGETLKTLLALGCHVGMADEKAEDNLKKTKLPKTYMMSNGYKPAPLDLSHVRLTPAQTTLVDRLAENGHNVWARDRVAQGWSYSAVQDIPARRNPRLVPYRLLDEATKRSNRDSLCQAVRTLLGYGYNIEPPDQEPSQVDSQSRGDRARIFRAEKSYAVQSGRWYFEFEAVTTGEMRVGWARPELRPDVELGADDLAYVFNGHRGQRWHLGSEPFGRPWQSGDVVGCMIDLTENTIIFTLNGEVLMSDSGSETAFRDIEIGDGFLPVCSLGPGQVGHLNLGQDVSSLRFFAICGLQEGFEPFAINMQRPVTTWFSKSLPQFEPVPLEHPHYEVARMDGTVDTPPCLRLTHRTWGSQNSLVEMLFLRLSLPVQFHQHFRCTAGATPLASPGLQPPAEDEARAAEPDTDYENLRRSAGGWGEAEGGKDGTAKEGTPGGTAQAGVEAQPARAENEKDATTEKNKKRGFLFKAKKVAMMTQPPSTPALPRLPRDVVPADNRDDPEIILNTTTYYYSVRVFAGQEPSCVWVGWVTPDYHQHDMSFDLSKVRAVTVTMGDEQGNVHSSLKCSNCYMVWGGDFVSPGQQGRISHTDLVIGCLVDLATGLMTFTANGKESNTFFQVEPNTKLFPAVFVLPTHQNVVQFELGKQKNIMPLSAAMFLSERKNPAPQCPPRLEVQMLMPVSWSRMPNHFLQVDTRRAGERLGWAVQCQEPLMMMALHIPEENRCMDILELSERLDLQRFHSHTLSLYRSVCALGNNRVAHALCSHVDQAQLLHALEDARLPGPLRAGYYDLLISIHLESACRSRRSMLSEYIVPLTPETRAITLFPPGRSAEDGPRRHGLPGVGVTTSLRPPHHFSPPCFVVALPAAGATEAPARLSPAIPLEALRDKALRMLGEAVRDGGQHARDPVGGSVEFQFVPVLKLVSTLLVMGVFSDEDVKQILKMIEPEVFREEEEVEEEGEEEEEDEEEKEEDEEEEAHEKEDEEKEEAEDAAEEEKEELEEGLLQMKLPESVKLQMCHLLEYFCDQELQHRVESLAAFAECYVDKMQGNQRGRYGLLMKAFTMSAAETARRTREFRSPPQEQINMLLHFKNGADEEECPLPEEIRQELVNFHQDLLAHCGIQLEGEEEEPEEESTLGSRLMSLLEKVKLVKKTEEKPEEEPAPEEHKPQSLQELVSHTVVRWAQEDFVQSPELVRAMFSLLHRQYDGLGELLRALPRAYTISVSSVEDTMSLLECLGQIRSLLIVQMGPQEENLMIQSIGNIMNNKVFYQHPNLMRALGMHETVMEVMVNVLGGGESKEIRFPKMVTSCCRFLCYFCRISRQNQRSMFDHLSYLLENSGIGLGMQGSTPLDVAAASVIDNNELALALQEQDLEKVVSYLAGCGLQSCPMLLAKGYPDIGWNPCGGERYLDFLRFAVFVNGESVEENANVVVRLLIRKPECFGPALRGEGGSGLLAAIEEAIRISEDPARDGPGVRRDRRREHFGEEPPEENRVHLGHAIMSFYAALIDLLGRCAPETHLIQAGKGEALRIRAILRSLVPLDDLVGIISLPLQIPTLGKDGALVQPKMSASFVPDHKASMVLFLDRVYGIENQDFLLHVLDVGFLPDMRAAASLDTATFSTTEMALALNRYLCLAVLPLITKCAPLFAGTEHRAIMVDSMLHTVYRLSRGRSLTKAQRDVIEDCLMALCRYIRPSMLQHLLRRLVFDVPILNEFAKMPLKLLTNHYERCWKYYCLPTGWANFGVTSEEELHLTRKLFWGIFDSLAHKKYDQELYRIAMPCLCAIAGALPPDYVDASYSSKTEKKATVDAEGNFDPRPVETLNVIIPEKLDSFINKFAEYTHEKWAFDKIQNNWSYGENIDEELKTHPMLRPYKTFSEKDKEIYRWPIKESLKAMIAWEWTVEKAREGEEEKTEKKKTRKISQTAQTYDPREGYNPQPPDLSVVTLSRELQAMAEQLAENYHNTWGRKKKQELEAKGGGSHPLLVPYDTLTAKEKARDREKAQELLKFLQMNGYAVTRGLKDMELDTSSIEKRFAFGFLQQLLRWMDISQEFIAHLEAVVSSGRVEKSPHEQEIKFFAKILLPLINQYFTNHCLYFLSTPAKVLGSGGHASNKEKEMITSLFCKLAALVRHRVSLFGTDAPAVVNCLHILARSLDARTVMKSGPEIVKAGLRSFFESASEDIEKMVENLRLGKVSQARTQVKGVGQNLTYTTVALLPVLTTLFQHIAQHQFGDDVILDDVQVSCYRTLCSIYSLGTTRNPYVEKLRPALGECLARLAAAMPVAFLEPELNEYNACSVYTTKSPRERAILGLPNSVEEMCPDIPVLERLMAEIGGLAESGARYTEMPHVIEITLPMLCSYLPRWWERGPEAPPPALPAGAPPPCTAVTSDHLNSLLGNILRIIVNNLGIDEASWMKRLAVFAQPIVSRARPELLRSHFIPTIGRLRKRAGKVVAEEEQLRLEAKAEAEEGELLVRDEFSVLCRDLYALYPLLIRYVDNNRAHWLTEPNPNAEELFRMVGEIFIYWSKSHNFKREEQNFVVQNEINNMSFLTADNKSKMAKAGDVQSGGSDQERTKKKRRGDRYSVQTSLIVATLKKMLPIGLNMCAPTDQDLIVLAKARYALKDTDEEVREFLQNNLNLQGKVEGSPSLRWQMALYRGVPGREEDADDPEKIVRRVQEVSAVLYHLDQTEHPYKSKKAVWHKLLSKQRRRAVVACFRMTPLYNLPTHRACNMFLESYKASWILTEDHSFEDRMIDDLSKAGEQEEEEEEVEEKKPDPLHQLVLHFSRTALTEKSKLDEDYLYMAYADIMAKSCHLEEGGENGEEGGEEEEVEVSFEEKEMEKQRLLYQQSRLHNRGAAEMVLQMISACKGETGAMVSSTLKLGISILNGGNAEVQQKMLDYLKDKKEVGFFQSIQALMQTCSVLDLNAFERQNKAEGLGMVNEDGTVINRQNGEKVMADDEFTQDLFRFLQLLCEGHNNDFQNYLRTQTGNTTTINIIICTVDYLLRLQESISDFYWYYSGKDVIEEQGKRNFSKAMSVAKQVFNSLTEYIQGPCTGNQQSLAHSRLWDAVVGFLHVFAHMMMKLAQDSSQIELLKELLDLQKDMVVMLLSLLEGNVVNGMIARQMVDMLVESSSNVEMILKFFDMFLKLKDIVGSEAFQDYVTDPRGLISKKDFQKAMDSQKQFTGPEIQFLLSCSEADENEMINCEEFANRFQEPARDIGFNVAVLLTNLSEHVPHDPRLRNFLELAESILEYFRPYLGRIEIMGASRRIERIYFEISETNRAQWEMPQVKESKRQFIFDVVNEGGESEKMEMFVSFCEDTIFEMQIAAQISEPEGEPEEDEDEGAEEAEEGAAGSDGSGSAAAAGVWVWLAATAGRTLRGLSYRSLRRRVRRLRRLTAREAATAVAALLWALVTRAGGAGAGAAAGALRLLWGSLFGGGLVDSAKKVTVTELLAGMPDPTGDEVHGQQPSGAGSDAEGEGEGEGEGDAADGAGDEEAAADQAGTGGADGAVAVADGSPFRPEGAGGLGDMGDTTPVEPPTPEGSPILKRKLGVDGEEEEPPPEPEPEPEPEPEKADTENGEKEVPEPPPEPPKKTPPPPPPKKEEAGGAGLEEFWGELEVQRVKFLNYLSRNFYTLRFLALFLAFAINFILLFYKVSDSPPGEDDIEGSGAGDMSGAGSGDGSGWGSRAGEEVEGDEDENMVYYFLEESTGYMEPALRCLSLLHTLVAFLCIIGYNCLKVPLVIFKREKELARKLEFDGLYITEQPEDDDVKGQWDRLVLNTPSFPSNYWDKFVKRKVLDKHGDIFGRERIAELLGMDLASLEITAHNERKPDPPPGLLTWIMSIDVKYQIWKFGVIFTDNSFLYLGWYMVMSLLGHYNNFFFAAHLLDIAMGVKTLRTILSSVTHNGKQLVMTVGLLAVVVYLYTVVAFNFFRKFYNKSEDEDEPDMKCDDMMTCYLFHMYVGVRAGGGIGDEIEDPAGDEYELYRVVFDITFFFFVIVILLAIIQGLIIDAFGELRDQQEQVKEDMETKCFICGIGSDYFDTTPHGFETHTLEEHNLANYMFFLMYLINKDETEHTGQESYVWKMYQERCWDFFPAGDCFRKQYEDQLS

Columns and labels:
[1] = biological target: T1, MG53 (TRIM72, mitsugumin 53) (mouse (endogenous in murine skeletal muscle)) (UniProt Q1XH17); assay: co-IP; murine skeletal muscle lysate in RIPA lysis buffer, 1 mg protein; magnetic protein G beads with 2 ug antibody (MG53 or RyR; mouse and rabbit IgG as controls), 4 °C overnight, three washes in PBS; western blot; both directions
T1 sequence: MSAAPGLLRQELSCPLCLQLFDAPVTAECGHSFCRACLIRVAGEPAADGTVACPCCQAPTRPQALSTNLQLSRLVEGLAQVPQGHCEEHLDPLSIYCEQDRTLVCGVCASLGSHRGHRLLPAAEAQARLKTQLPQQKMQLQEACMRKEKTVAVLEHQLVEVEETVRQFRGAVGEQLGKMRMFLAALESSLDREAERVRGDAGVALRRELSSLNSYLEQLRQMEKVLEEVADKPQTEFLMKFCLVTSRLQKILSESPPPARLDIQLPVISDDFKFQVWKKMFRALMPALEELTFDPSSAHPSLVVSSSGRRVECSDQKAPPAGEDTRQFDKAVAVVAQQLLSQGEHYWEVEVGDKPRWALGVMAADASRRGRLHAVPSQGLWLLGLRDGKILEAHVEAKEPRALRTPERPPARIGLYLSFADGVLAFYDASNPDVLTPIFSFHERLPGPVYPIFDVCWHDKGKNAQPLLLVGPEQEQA

[2] = biological target: ryanodine receptor 1 (RyR1) (mouse (endogenous in murine skeletal muscle)) (UniProt E9PZQ0); assay: as above

- binding [1]: binds
Molecule: ryanodine receptor 1 (RyR1) (from UniProt E9PZQ0 1-5035)

- binding [2]: binds
B1: MG53 (TRIM72, mitsugumin 53) (protein, UniProt Q1XH17 1-477)
chain: T1 sequence
